These are yes or no findings as the source states them, for the method shown. In cells and extracts the contact can be indirect. Some results given as binding are weak or reduced against the parent protein; the word gives no strength. One block for each molecule: values may come before it.
What was measured:
[1] = molecular target: urokinase-type plasminogen activator receptor (uPAR), endogenous in HKC-8 cells (human (endogenous in HKC-8)) (UniProt Q03405); test: co-IP; HKC-8 cells exposed to FXII (62 nM; ± 10 µM zinc) in the presence of equimolar (62 nM) or excess molar (120 nM) HK; FXII binding to uPAR determined by coimmunoprecipitation; only the binder purified
[2] = molecular target: urokinase-type plasminogen activator receptor (uPAR), endogenous in HKC-8 cells (human (endogenous in HKC-8)) (UniProt Q03405); test: proximity ligation; PLA for uPAR and active integrin β1 in HKC-8 cells (FXII 62 nM with Zn2+ 10 µM for 24 h or not treated) and in F12-null HKC-8 cells transfected with WT-FXII, ∆Fib-II-FXII or empty vector
[3] = molecular target: urokinase-type plasminogen activator receptor (uPAR), endogenous in HKC-8 cells (human (endogenous in HKC-8)) (UniProt Q03405); test: co-IP; uPAR immunoprecipitated from HKC-8 cells exposed to purified human FXII (62 nM) with Zn2+ (10 µM) for 24 h or not treated; blots for active integrin β1, active integrin β3 and uPAR
[4] = molecular target: urokinase-type plasminogen activator receptor (uPAR), endogenous in human kidney biopsies (human (endogenous in kidney biopsies)) (UniProt Q03405); test: proximity ligation; PLA on human kidney biopsy sections of nondiabetic controls and diabetic patients with DKD
[5] = molecular target: T1, urokinase-type plasminogen activator receptor (uPAR), endogenous in mouse kidney (mouse (endogenous in kidney)) (UniProt P35456); test: proximity ligation; PLA for uPAR and integrin β1 on kidneys of hyperglycemic F12-/- mice
T1 sequence: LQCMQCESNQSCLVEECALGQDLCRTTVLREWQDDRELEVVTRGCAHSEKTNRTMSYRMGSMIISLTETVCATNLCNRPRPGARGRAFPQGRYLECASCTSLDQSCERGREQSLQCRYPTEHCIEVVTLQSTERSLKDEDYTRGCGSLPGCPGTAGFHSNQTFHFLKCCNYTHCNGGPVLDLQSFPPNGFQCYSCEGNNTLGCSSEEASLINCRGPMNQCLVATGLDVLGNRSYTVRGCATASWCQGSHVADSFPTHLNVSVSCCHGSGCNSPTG

Amino acid sequences for entries named in this document (tags omitted). A change or cut given only in a name is not applied to a line headed by its entry. Residues count along the entry.
UniProt P05556: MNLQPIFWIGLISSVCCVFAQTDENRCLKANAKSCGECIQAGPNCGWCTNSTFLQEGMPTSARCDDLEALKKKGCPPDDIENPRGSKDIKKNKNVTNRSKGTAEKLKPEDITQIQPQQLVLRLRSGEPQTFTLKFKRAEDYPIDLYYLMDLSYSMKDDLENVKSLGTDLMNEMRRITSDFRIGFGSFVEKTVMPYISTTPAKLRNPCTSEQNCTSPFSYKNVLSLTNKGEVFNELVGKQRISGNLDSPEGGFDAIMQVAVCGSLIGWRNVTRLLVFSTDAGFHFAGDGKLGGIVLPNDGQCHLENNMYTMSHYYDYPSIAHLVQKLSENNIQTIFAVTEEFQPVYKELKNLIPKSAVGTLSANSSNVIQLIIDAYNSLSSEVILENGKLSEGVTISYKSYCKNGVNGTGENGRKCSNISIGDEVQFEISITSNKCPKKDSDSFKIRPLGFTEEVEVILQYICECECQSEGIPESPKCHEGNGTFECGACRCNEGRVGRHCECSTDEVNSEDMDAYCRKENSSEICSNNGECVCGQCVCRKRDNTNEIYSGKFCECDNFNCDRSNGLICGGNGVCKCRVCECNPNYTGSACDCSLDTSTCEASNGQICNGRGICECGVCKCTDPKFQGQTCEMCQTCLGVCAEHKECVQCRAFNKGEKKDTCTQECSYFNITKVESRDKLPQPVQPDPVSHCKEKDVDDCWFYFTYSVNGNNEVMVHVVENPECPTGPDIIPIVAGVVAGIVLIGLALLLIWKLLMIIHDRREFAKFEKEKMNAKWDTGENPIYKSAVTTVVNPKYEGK
UniProt P09055, residues 21-798: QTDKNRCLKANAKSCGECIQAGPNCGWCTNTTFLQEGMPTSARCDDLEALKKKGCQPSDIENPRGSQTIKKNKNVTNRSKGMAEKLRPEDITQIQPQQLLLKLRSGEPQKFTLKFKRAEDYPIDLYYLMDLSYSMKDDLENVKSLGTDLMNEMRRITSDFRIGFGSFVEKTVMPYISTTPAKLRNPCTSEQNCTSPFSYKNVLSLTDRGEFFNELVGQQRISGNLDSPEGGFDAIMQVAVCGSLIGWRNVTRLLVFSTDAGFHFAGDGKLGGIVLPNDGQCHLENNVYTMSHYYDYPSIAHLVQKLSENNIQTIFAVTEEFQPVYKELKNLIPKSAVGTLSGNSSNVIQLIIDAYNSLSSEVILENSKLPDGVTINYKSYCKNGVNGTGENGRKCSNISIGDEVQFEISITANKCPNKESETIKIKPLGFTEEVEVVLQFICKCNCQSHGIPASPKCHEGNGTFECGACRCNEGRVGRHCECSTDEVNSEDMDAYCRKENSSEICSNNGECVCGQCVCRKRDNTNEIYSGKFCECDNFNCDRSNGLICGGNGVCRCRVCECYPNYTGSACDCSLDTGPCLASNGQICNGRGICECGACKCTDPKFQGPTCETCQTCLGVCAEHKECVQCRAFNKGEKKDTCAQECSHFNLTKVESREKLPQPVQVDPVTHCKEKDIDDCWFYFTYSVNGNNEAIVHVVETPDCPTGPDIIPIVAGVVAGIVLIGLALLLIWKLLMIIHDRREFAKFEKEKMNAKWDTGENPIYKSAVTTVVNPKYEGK
UniProt P01042, residues 19-644: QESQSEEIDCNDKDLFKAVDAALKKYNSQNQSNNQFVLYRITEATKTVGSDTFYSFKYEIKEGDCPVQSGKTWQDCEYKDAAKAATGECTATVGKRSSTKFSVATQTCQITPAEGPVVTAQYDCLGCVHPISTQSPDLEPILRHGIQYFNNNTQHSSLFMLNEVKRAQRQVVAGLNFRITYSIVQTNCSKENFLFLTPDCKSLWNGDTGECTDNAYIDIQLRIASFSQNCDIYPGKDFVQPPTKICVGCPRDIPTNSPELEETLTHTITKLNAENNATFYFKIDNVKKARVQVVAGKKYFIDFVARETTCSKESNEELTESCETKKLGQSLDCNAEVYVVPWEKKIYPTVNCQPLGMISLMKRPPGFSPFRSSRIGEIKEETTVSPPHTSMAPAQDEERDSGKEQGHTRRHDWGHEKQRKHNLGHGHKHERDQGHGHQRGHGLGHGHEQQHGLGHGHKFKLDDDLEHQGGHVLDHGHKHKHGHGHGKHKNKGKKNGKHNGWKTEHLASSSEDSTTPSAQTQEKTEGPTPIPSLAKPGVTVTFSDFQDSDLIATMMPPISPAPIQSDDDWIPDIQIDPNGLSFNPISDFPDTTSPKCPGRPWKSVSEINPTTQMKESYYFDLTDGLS

[6] = molecular target: T1, urokinase-type plasminogen activator receptor (uPAR), endogenous in mouse kidney (mouse (endogenous in kidney)); test: proximity ligation; PLA for uPAR and integrin β1 on kidneys of normoglycemic and hyperglycemic WT mice
[7] = molecular target: urokinase-type plasminogen activator receptor (uPAR), endogenous in HKC-8 cells (human (endogenous in HKC-8)) (UniProt Q03405); test: co-IP; uPAR immunoprecipitated from HKC-8 cells exposed to purified human FXII (62 nM) with Zn2+ (10 µM) for 24 h, with and without pretreatment with peptides (300 µM, 1 h); blots for FXII and uPAR; only the binder purified

Molecule: integrin β1, endogenous in HKC-8 cells (from UniProt P05556 21-798) (receptor)
binding [2]: binds
binding [3]: binds

Molecule: integrin β1, endogenous in human kidney biopsies (from UniProt P05556 21-798) (receptor)
binding [4]: binds

Molecule: integrin β1, endogenous in mouse kidney (from UniProt P09055 21-798) (receptor)
binding [5]: binds weakly
binding [6]: binds

Molecule: PWCFVLNRDRLSWEY [FXII-based peptide PW15 (Kringle domain, residues 275-289)]
binding [7]: binds

Results, then the molecule that gave them:

binding [1]: binds
Molecule: high molecular weight kininogen (HK) (from UniProt P01042 19-644)

binding [7]: binds
Molecule: HRQLYHKCTHKGR [FXII-based peptide HR13 (FN2 domain, residues 54-66)]

Source: paper PMC11390906
